Experimental data reported in article PMC4366279 (PLoS ONE, 2015).
No constants are given. Whether binding was seen depends on the method and setting. Binding seen in cells or lysates may run through a third protein. Some results given as binding are weak or reduced against the parent protein; the word gives no strength.

Experiments:
[1] = molecular target: T1, TbREL1 S214A (Trypanosoma brucei) (UniProt P86926); assay: pull-down; His6-TbREL1 TNT mixture mixed with an equal volume of untagged KREPA2 TNT mixture, captured on magnetic His-tag isolation beads (Dynabeads); binding buffer 50 mM NaPO4 pH 8.0, 300 mM NaCl, 0.01% Tween 20; 20-30 min at 4°C; three washes; [35S]-methionine-labelled proteins on 10% SDS-PAGE, PhosphorImager; KREPA2-only control for background
T1 sequence (chain, [35S]-methionine labelled): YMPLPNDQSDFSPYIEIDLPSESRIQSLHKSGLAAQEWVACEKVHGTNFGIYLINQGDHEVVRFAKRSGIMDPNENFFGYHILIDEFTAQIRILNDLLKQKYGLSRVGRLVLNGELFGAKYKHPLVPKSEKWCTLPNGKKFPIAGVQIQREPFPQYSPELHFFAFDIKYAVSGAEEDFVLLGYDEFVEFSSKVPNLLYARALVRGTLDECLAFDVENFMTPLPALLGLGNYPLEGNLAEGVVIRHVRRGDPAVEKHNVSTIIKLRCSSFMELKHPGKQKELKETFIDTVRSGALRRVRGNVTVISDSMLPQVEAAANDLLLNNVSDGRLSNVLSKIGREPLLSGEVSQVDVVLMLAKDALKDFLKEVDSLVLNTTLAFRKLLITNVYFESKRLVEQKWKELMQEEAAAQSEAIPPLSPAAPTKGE

[2] = molecular target: T2, TbREL1 T264A (Trypanosoma brucei) (UniProt P86926); assay: as above
T2 sequence (chain, [35S]-methionine labelled): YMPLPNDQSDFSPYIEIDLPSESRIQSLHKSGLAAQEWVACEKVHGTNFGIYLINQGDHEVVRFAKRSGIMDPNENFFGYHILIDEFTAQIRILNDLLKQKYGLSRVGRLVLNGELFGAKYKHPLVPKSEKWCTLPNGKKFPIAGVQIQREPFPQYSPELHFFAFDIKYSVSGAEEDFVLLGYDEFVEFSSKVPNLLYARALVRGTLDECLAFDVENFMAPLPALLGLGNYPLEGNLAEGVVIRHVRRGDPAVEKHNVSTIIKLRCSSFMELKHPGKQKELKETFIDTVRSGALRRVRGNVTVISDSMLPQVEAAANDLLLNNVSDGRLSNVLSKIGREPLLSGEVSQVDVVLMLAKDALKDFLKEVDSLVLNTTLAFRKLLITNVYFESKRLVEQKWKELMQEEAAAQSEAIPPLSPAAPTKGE

B1: KREPA2 (natural protein)
chain: MYRRFFRSAAVKHLGTTSAQCLMRATKYPCGAMCRNASSCHPQTLGYQQRFQSTTDKKFHCSVCKKPFRLEMAAKLHLQQAHGGDGSVEAGPGPGVEASSVNVVSTPVPSPISPVERTFVDEEERRPRRMRPTPKPLHQPDRDIPAAAMEEMLGVWDKIGLNRLEGNFVHSTMVMKVFAAPPDVSEIPLYEHVAPEGENPFDSLDHMTTGTVDATYVGHDAFAEVDLVDPFVAAPDQTLNPFRAGKVRNPFTRISPTQREVVKPLQPPQPKEEPLKAPVTPFGQLPMFGQTREPSASFAAAAVSVQAAANPNEVSSPFAAAVSSSPFVGQVASPFAPAQDVAGSPFEASPCAASSPFVTAGGQETSPFAAPSTPASFGQGSLFPPMGTGAPGFTAITETEQRQQELEHGCPTCGKKFSTFEGAAMHSKSKHGIVLESKKVKDRLNRKGVPDLPAYVPSPVDLSSTSPFGTRSAIGASWAETELIPHAQCVSNITIVGRVLDVSQASENVSHVTVFVEGERSGEEETLTLCCFGEVSQKIRGTLKRNATIFASGTLRLHPVYEASNNKYYVSPVVHVSMPTGTLAVIT
modifications: [35S]-methionine labelled
notes: KREPA2 of T. brucei, the KREPA2 open reading frame, expressed untagged (63 kDa); source: in vitro translated (TNT reticulocyte lysate coupled transcription and translation system, Promega)
B1 was tested, and the binding [1] was “binds” and the binding [2] was “binds”.
